No constants are given. Whether binding was seen depends on the method and setting. Some binding calls cover weakened binding; strength is not graded here.
Molecular target: cynomolgus macaque VISTA polypeptide (ELISA coat) (cynomolgus macaque)
Experiment: ELISA, target protein coated at 1 µg/ml

binding: binds
B1: anti-VISTA clone 13D5-1 IgG1 (antibody, V domains shown)
VH: QVQLQQSGAELVRPGTSVKISCKASGYTFTNYWLGWVKQRPGHGLEWIGDIYPGGGYTNYNEKFKGKATLTADTSSSTAYMQLSSLTSEDSAVYFCVRSGYYYGSSWYFDVWGAGTTVTVSS
VL: DVLMTQTPLSLPVSLGDQASISCRSSQSIVHSSGNTYLEWYLQKPDQSPKLLIYKVSNRFSGVPDRFSGSGSGTDFTLKISRVEAEDLGVYYCFQGSHVPPTFGGGTKLEIKR

Reference: patent publication US20190300610A1
